According to paper PMC12742282:
Read-outs that look alike come from different tables or passages of the source. No constants are given. Whether binding was seen depends on the method and setting. In cells and extracts the contact can be indirect. Here binding means that the protein was enriched with, or labelled near, the bait; the list need not be complete. For some of these results: No binding means not detected with the bait.

Amino acid sequences for entries named in this document (tags omitted). A change or cut given only in a name is not applied to a line headed by its entry. Residues count along the entry.
UniProt Q8I5L6: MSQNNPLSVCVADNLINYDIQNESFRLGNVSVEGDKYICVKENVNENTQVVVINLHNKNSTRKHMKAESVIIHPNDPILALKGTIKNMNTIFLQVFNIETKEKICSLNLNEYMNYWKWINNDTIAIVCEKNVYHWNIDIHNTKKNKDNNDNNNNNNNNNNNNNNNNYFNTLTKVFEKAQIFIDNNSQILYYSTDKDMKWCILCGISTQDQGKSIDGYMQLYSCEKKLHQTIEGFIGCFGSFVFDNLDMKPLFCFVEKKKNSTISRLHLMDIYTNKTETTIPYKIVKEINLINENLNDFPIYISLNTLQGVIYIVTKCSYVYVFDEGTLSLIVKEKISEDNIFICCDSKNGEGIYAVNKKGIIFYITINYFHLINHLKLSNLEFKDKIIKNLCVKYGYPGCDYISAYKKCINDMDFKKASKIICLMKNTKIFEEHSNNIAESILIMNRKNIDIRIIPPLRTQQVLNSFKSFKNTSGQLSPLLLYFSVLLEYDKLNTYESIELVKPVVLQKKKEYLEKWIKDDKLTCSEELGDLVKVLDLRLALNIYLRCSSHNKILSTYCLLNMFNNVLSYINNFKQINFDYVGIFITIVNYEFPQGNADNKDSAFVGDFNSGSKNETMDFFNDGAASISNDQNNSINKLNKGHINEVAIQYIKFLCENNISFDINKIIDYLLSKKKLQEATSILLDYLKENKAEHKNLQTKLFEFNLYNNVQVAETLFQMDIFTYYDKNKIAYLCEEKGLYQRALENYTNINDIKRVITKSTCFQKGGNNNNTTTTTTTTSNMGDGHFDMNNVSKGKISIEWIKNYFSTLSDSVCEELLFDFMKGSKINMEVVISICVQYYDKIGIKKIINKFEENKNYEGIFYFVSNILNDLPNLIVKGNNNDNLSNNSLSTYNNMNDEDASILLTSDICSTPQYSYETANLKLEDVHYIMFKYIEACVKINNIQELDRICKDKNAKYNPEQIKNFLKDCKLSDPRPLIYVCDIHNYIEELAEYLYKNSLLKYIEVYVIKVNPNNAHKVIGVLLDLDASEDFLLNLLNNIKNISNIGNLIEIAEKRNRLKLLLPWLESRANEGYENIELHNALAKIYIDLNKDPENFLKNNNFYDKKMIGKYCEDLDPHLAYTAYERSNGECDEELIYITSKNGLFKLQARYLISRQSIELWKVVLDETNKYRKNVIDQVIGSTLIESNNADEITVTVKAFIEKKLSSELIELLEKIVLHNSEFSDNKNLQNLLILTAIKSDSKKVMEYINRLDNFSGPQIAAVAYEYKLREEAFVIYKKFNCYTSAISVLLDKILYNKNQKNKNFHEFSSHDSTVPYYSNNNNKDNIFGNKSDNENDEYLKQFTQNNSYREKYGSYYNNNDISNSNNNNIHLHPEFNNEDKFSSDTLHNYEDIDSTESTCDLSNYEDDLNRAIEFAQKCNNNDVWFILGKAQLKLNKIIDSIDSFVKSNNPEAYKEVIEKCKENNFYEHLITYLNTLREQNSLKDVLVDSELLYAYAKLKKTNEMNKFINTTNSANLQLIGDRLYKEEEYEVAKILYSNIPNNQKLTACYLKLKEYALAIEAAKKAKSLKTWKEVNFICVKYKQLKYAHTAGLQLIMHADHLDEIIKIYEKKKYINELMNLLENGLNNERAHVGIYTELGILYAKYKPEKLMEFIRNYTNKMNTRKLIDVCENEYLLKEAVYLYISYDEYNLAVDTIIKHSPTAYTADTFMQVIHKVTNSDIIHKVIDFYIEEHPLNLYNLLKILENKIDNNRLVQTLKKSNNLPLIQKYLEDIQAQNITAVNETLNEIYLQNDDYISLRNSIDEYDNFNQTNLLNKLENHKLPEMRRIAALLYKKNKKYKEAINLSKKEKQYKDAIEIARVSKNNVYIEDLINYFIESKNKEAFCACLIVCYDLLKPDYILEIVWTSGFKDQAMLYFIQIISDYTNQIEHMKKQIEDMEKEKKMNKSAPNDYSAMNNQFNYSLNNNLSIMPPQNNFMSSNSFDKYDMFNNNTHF
UniProt Q8IIJ9, residues 28-700: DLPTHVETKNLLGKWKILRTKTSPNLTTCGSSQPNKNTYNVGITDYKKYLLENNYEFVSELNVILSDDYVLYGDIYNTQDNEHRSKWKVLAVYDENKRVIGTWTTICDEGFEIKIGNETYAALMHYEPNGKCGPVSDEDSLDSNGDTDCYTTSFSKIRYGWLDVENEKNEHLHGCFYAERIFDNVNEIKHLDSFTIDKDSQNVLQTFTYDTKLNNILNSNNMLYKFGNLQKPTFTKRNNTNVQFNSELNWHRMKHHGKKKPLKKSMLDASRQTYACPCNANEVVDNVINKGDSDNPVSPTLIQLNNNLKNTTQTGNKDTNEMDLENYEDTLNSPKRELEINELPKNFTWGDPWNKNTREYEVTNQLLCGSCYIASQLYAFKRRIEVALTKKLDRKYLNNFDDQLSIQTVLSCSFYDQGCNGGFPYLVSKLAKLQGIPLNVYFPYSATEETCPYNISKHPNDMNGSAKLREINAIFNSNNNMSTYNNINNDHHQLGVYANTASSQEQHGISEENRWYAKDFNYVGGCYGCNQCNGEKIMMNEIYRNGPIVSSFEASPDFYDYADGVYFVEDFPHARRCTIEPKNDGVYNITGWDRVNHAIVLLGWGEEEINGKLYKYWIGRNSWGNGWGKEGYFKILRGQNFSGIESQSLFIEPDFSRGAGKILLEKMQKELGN
UniProt C6KSX7: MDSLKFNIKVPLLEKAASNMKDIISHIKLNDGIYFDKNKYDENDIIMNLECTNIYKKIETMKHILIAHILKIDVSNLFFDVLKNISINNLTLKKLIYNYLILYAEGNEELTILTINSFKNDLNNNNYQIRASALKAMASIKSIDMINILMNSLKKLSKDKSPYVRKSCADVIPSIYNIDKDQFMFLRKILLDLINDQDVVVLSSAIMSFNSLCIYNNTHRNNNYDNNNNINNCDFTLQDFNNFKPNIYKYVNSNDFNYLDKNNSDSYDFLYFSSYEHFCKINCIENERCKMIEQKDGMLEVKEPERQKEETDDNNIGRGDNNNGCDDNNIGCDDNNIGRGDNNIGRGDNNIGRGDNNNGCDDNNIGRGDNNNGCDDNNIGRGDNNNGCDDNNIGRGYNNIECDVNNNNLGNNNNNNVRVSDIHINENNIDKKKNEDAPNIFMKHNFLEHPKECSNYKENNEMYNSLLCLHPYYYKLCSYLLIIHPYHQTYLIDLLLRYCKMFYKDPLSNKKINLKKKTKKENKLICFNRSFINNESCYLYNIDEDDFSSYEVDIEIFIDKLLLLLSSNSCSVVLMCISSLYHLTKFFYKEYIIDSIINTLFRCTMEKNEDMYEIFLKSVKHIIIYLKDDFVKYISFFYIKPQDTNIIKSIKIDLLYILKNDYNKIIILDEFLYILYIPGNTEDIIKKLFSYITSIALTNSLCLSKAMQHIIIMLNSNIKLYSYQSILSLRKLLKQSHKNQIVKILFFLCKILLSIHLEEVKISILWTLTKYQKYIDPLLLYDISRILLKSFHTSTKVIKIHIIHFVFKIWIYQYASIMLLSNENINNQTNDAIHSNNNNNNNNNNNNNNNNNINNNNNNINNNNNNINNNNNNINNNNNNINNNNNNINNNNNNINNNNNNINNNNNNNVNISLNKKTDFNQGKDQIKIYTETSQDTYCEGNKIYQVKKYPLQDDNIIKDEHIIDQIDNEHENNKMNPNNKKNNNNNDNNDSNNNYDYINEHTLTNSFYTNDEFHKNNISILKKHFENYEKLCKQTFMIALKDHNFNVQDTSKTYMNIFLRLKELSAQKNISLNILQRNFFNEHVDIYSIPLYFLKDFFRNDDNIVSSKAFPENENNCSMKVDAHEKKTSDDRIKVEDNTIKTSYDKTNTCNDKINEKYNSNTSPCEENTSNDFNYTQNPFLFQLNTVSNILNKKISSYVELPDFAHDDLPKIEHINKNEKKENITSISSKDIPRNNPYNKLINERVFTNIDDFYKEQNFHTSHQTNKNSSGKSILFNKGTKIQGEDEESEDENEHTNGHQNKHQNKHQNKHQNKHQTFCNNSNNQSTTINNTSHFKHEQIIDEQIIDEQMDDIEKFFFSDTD
UniProt Q76NM6: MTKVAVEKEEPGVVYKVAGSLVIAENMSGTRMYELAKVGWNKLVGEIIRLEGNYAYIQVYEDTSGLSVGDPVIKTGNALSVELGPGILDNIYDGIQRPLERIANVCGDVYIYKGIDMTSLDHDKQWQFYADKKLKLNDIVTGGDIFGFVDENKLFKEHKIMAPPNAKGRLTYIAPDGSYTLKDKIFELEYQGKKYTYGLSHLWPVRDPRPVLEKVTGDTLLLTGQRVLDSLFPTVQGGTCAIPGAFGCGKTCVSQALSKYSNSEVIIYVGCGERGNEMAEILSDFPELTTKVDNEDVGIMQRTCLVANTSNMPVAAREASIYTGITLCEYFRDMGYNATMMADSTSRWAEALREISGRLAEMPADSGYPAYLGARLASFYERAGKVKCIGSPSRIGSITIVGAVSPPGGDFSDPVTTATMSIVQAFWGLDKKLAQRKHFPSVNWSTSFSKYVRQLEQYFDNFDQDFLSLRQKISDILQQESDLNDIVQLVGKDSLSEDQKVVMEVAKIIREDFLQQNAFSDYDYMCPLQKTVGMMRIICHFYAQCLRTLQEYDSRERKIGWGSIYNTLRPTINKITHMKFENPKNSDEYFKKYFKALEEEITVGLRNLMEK
UniProt Q8IKN5: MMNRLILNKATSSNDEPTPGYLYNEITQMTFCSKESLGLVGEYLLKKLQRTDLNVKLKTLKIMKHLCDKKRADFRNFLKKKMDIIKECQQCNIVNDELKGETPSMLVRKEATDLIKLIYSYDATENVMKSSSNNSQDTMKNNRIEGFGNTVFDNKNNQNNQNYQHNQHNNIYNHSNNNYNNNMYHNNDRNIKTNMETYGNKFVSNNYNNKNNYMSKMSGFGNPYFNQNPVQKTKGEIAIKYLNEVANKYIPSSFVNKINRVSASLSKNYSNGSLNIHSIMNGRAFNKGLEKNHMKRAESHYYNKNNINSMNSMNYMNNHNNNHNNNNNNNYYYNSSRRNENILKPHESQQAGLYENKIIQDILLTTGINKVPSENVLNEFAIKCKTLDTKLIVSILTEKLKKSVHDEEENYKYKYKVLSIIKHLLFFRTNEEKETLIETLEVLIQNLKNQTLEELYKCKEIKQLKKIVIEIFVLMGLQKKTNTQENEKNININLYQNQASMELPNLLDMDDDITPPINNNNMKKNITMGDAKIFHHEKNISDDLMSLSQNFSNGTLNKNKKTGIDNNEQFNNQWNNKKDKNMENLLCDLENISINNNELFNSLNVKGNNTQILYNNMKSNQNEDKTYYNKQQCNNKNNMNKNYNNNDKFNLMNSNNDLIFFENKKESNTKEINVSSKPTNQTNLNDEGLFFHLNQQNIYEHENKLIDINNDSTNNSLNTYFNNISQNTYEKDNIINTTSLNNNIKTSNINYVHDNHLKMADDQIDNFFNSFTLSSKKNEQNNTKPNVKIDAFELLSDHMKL
UniProt Q8IHW4: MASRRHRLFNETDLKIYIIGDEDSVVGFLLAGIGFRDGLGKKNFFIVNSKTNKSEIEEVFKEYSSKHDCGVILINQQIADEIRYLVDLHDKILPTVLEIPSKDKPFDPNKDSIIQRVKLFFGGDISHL
UniProt Q8IJF4: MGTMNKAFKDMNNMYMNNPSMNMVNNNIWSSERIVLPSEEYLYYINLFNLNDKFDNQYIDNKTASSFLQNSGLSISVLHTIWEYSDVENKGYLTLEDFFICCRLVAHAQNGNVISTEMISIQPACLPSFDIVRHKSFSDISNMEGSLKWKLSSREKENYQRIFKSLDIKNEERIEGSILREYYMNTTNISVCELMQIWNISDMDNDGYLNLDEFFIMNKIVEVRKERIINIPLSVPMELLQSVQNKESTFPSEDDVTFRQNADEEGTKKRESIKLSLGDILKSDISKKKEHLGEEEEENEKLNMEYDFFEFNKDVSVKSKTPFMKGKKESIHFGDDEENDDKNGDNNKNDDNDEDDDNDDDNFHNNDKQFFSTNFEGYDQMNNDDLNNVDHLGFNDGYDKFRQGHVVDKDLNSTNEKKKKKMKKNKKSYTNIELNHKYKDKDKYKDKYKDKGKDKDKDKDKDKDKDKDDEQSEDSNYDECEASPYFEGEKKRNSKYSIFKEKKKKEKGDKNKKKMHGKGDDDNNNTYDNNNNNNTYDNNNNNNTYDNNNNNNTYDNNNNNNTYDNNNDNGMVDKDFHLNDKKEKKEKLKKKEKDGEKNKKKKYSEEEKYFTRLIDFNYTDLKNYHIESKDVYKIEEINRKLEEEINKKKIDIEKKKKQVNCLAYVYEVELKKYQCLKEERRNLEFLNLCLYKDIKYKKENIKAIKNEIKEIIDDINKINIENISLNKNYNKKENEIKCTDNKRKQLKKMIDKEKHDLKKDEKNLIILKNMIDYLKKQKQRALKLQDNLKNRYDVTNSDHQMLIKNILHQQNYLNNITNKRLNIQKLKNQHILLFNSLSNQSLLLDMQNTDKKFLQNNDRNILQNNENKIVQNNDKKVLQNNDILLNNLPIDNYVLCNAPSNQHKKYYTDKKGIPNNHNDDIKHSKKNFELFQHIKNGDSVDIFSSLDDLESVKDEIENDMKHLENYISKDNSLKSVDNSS

B1: M17 leucyl aminopeptidase (enzyme, UniProt Q8IL11 1-605)
chain: MYFSSLCKFLPISEKEKIYLNIVKKRFCKSNIYYNNNNNNIINYNKRGLKFYPFCNNLKKNINFVNINNKKGINFHSINKERKMASEVPQVVSLDPTSIPIEYNTPIHDIKVQVYDIKGGCNVEEGLTIFLVNNPGKENGPVKISSKVNDKNVSEFLKDENMEKFNVKLGTSKHFYMFNDNKNSVAVGYVGCGSVADLSEADMKRVVLSLVTMLHDNKLSKLTVVFEINVDKNLFRFFLETLFYEYMTDERFKSTDKNVNMEYIKHLGVYINNADTYKEEVEKARVYYFGTYYASQLIAAPSNYCNPVSLSNAAVELAQKLNLEYKILGVKELEELKMGAYLSVGKGSMYPNKFIHLTYKSKGDVKKKIALVGKGITFDSGGYNLKAAPGSMIDLMKFDMSGCAAVLGCAYCVGTLKPENVEIHFLSAVCENMVSKNSYRPGDIITASNGKTIEVGNTDAEGRLTLADALVYAEKLGVDYIVDIATLTGAMLYSLGTSYAGVFGNNEELINKILNSSKTSNEPVWWLPIINEYRATLNSKYADINNISSSVKASSIVASLFLKEFVQNTAWAHIDIAGVSWNFKARKPKGFGVRLLTEFVLNDAL
B2: M18 aspartyl aminopeptidase (enzyme, UniProt Q8I2J3 1-570)
chain: MDKKAREYAQDALKFIQRSGSNFLACKNLKERLENNGFINLSEGETWNLNKNEGYVLCKENRNICGFFVGKNFNIDTGSILISIGHIDSCALKISPNNNVIKKKIHQINVECYGSGLWHTWFDRSLGLSGQVLYKKGNKLVEKLIQINKSVLFLPSLAIHLQNRTRYDFSVKINYENHIKPIISTTLFNQLNKCKRNNVHHDTILTTDTKFSHKENSQNKRDDQMCHSFNDKDVSNHNLDKNTIEHLTNQQNEEKNKHTKDNPNSKDIVEHINTDNSYPLLYLLSKELNCKEEDILDFELCLMDTQEPCFTGVYEEFIEGARFDNLLGSFCVFEGFIELVNSIKNHTSNENTNHTNNITNDINDNIHNNLYISIGYDHEEIGSLSEVGARSYCTKNFIDRIISSVFKKEIHEKNLSVQEIYGNLVNRSFILNVDMAHCSHPNYPETVQDNHQLFFHEGIAIKYNTNKNYVTSPLHASLIKRTFELYYNKYKQQIKYQNFMVKNDTPCGSTVGSMVAANLSMPGIDIGIPQLAMHSIREIAAVHDVFFLIKGVFAFYTYYNQVLSTCVHDK

How the values were obtained:
[1] = molecular target: PfAP‐1 γ‐GFP (AP‐1 γ subunit, endogenous locus tagged with GFP) (P. falciparum) (UniProt Q8IKS3); assay: affinity purification with mass spectrometry; GFP-Trap agarose precipitation from the PfAP-1 γ::GFP parasite line, LC-MS/MS, three replicates, 3D7 parasites as control
[2] = molecular target: PfCHC‐GFP (clathrin heavy chain, endogenous locus tagged with GFP) (P. falciparum) (UniProt Q8I5L6); assay: affinity purification with mass spectrometry; GFP-Trap agarose precipitation from trophozoites of the PfCHC::GFP parasite line, LC-MS/MS, two replicates, 3D7 parasites as control, SAINT (probability above 90%, FDR below 2.5%)
[3] = molecular target: PfCLC‐GFP (clathrin light chain, endogenous locus tagged with GFP) (P. falciparum) (UniProt Q8ILA9); assay: affinity purification with mass spectrometry; GFP-Trap agarose precipitation from the PfCLC::GFP parasite line, LC-MS/MS, three replicates, 3D7 parasites as control, same SAINT cutoffs
[4] = molecular target: PfCHC‐GFP (clathrin heavy chain, endogenous locus tagged with GFP) (P. falciparum) (UniProt Q8I5L6); assay: affinity purification with mass spectrometry; GFP-Trap agarose precipitation from trophozoites of the PfCHC::GFP parasite line, LC-MS/MS, two replicates, 3D7 parasites as control, SAINT (probability above 90%, FDR below 2.5%); remark: listed apart in the source

Molecule	binding [1]	binding [2]	binding [3]	binding [4]
PfCLC (clathrin light chain) (from UniProt Q8ILA9)	binds	binds		
PfCHC (clathrin heavy chain) (from UniProt Q8I5L6 1-1997)	binds		binds	
AP‐2 μ2 (from UniProt Q8I5M5)	binds	no binding		
DIX domain‐containing protein (from UniProt Q8ILP0)		binds	binds	
Dipeptidyl aminopeptidase 1 (from UniProt Q8IIJ9 28-700) (enzyme)	binds		binds	
DnaJ protein (from UniProt Q8ILY2)	binds	binds	binds	
AP‐3 β (from UniProt C6KSX7)			binds	
AP‐2 α (from UniProt C6KT12)		no binding	binds	
AP‐4 ε (from UniProt Q8I3A8)			binds	
AP‐4 μ4 (from UniProt Q8IIH2)			binds	
V‐type proton ATPase catalytic subunit A (from UniProt Q76NM6 1-611)	binds		binds	
putative AP‐4 complex accessory subunit Tepsin (from UniProt Q8IKN5)	binds	binds	binds	
AP‐1 μ1 (from UniProt Q8IEK4)	binds	binds	binds	
KIC3 (from UniProt Q8I308)		no binding	binds	
AP‐4 β (from UniProt Q8IBF8)			binds	
V‐type proton ATPase subunit F (from UniProt Q8IHW4)	binds		binds	
PfAP‐1 γ (AP‐1 γ subunit) (from UniProt Q8IKS3)		binds	binds	
falstatin (from UniProt Q8I333)			binds	
V‐type proton ATPase subunit E (from UniProt Q8I2H3)	binds		binds	
AP‐3 μ3 (from UniProt Q8IL63)	binds		binds	
AP‐4 σ (from UniProt Q8IFN5)			binds	
V‐type proton ATPase subunit G (from UniProt Q8IE84)	binds		binds	
Eps15 (from UniProt Q8IJF4)	binds		binds	
AP‐1 σ1 (from UniProt Q8III7)	binds	binds	binds	
Sortilin (from UniProt Q8IKV8)		binds	binds	
B1			binds	binds
B2	binds		binds	
